{"source": "PubChem BioAssay AID1347423", "about": "(Functional Genomics Laboratory (NCATS/FGL), 2020)", "note": "About 210 (0.4%) of roughly 52,000 sequences were called active.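 The calls were made as follows: active = gene whose silencing raises cell survival under the drug, median off-target-corrected z-score across its silencing RNAs 2 or more; inactive = the rest.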 Some of the results follow."}
{"assay": "Resistance to Poly (ADP-Ribose) Polymerase inhibitor: Gene Identification via Genome-wide siRNA Screen", "settings": "mouse BRCA2 R2336H ES cells, olaparib, CellTiter-Glo viability; stronger effect = higher value", "method_in_brief": "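Mouse BRCA2 R2336H ES cells were reverse-transfected with siRNA (20 nM final), treated at 48 h with 500 nM olaparib, and read by CellTiter-Glo after 72 h. Scores: MAD-based z per siRNA, median per gene, seed off-target correction.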"}
{"sequence": "GGUGGGCAUCUGACAACAUTT against Set", "z-score": "inactive: 2.51"}
{"sequence": "GCUACUUUAGUGGUUUCACTT against Ets1", "z-score": "inactive: 0.319"}
{"sequence": "GGUGCACACCAAUGUUCUGTT against Efemp2", "z-score": "inactive: -0.0535"}
{"sequence": "CGAAGGUACUAUGUAUUUUTT against Tbce", "z-score": "inactive: -1.41"}
{"sequence": "GUCCAUACUUUGGUUUUCCTT against D630024D12Rik", "z-score": "inactive: 1.52"}
{"sequence": "CCAUCAUGACGGUUCCCUATT against Mrgpra5", "z-score": "inactive: -1.4"}
{"sequence": "GGGAGAGUGUUUGUUCAUUTT against Dusp1", "z-score": "inactive: -0.188"}
{"sequence": "GCUUAUGUCGAAUGAUAGCTT against Idb2", "z-score": "inactive: 0.794"}
{"sequence": "GGGCCUGAUUUCCUAUGCUTT against Pglyrp4", "z-score": "inactive: 0.548"}
{"sequence": "GGACAUAGUAUACGAAAAUTT against Znf341", "z-score": "inactive: 0.632"}
{"sequence": "GGGUGAAAUAUUCUAUUCATT against A230078I01Rik", "z-score": "inactive: 0.376"}
{"sequence": "CCAGACUUGGGUGAAUGAATT against Olfr450", "z-score": "inactive: -0.94"}
{"sequence": "GGAAGCCAUUAUACAUGACTT against Uvrag1", "z-score": "inactive: -0.513"}
{"sequence": "CGUGAGACCCUCAAGCUUGTT against 1700012H17Rik", "z-score": "inactive: 0.815"}
{"sequence": "CCUGCCUUUGUAAAAGCCGTT against Bid", "z-score": "inactive: -0.0202"}
{"sequence": "GCAAACUAGAUAUCUAGGGTT against Lmx1a", "z-score": "inactive: -0.579"}
{"sequence": "GGUUCCUAGUUACAACAUCTT against Pcdhga12", "z-score": "inactive: 1.21"}
{"sequence": "GCGUAUUACACCCUUGGAATT against Terf1", "z-score": "inactive: 0.0138"}
{"sequence": "CCUGUGAGGCCAUUGAUUCTT against Lpd", "z-score": "inactive: -0.359"}
{"sequence": "CCAAAACCUCAUGCUGAAATT against BC021442", "z-score": "inactive: 1.83"}
{"sequence": "GCAGCACAUAGAAACGUGUTT against Fnbp1", "z-score": "inactive: 2.48"}
{"sequence": "GGGCUAGCCUAGAUAAAAATT against 5730555F13Rik", "z-score": "inactive: -1.57"}
{"sequence": "GCCUAAGAGUUUCAAUAAGTT against Tgtp", "z-score": "inactive: 0.07"}
{"sequence": "GGCAUCUCCAUCAAUACAGTT against Pdcl", "z-score": "inactive: -0.472"}
{"sequence": "CGGAAAUCAACAUUGCGUUTT against Stxbp1", "z-score": "inactive: -0.443"}
{"sequence": "GGGAAUUGCCUCAGCUAAGTT against Men1", "z-score": "inactive: 1.18"}
{"sequence": "GGACCUGUGGAACCAUUCCTT against E430025L02Rik", "z-score": "inactive: -0.0421"}
{"sequence": "GGCUAAGCUAUACCACCAUTT against Cckbr", "z-score": "inactive: -0.626"}
{"sequence": "GCUGUGUUAGGAUUGUCCATT against Olfr553", "z-score": "inactive: -0.418"}
{"sequence": "GGUCUAAUCAAUGUUUUGCTT against MGC67181", "z-score": "inactive: 1.02"}
{"sequence": "UGUUGGUGGGCCUUAUAUUTT against Olfr1153", "z-score": "inactive: 1.12"}
{"sequence": "CGGUGGUGUGAAGCCCAAUTT against Gm424", "z-score": "inactive: -1.07"}
{"sequence": "GGCCUUCCAUACUACAACUTT against A230042K10Rik", "z-score": "inactive: -0.368"}
{"sequence": "CCAUUUCUUAGUGGGACUATT against Ogdh", "z-score": "inactive: -0.867"}
{"sequence": "GCACUUGUGGAUCAAUACCTT against Efhd1", "z-score": "inactive: 0.871"}
{"sequence": "GGAAUUAAGAAGACAAUUCTT against 4921531G14Rik", "z-score": "inactive: 0.229"}
{"sequence": "GGGUUAGCGCAUAAAGACATT against Fv4", "z-score": "inactive: 0.8"}
{"sequence": "CGUAGGUUCUAACGAUUCCTT against C730034F03Rik", "z-score": "inactive: 0.151"}
{"sequence": "GGAAGUAUUAAUGUACAACTT against Sc4mol", "z-score": "inactive: -0.685"}
{"sequence": "GCAACGCAACAGCAUUCCUTT against Dscr2", "z-score": "inactive: 0.31"}
{"sequence": "GGUGGAAAAGCAAUUCCUUTT against Mcpt5", "z-score": "inactive: -0.0363"}
{"sequence": "CCAGGUUCUGACCACCUACTT against Htr3a", "z-score": "inactive: 0.237"}
{"sequence": "CCUGAUAAACUCUAGUGUGTT against Six5", "z-score": "inactive: -1.16"}
{"sequence": "GCAUAUUACACAGCACUAGTT against Itgbl1", "z-score": "inactive: -0.316"}
{"sequence": "CCGAGAACCGAACUUACCATT against B930006L02Rik", "z-score": "inactive: -0.372"}
{"sequence": "CGUGCUAGUGACCAUUUACTT against 3732412D22Rik", "z-score": "inactive: -0.014"}
{"sequence": "GCCUGUUUGGUAUUCUUCCTT against Olfr832", "z-score": "inactive: 0.964"}
{"sequence": "GCACCACUAAUCGAGUUGGTT against Pigf", "z-score": "inactive: 0.527"}
{"sequence": "GGACUCUGGAACAAGUCACTT against Slc2a8", "z-score": "inactive: 1.53"}
{"sequence": "GGUUCCUGUGAAUUAUGUGTT against 1700054O13Rik", "z-score": "inactive: 1.07"}
{"sequence": "GGUGGAAAGAUUAUCUUCATT against Dmc1h", "z-score": "inactive: -2.03"}
{"sequence": "GGAGGAAGACGAGUUCAUUTT against Rassf2", "z-score": "inactive: 0.183"}
{"sequence": "GCGAUUUCUGGACAGCAAUTT against Cyp2r1", "z-score": "inactive: -0.447"}
{"sequence": "UGAUUAUUGACCUGUUAGUTT against Olfr1193", "z-score": "inactive: -0.949"}
{"sequence": "GGCCUGAAGGGAAAGAUUUTT against Rbbp4", "z-score": "inactive: -0.677"}
{"sequence": "GGAGAAAAGAGGCUUCCAGTT against Lad1", "z-score": "inactive: -1.06"}
{"sequence": "GGUUAACACUGGACGUGGUTT against 5730409F24Rik", "z-score": "inactive: 1.22"}
{"sequence": "GUCUUCAACUCAGUUCAGUTT against Wap", "z-score": "inactive: -0.295"}
{"sequence": "GGUUGACCAGAUUGAGAAATT against Sfrs2ip", "z-score": "inactive: -0.374"}
{"sequence": "GGAUGGUCAAACACGUCACTT against Pla2g2c", "z-score": "inactive: 0.342"}
{"sequence": "GGAGUUGCUGUACAACAAGTT against Ndufs8", "z-score": "inactive: 2.08"}
{"sequence": "GGUGAUGAUGUCCAGAAGUTT against 4932416A15", "z-score": "inactive: 0.59"}
{"sequence": "GGGACUGAUCGGUACCGAATT against Igsf8", "z-score": "inactive: 1.09"}
{"sequence": "GCCUGUGGCUUAAACUUCATT against AI427515", "z-score": "inactive: 0.325"}
{"sequence": "CCUAGGUUUGAAGACUCCCTT against 2900006N09Rik", "z-score": "inactive: 1.03"}
{"sequence": "GGAUGAUUACAGAUAUGAUTT against 2310043N13Rik", "z-score": "inactive: 0.0508"}
